The supplement of paper PMC8104966
Several values for one entry are separate records, joined by “and”; a condition that tells them apart may be missing. Identical values can stand only once. This is one part of the list. Single values are uncertain here, since repeats match poorly.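 Fusion between ACE2-bearing and full-length-spike-bearing U2OS cells was measured by imaging as the percentage of nuclei with both cell types' fluorescent markers. An inhibitory hit is a non-toxic compound whose fusion z-score is below -3, more than three standard deviations beneath the plate's DMSO wells.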

System: U2OS ACE2 x SARS-CoV-2 spike co-culture
Test: cell-cell fusion (fraction fused) z-score vs plate DMSO control; higher = more fusion
Conditions: 30 µM; 5 h; toxicity class: non-toxic, passed QC

Compound	cell-cell fusion (z-score)
C[N+](C)(C)CC(O)CC(=O)O.[Cl-] (stereo in doubt) [L-Carnitine hydrochloride]	inactive: 3.16
CC1(C)S[C@@H]2[C@H](NC(=O)[C@H](C(=O)[O-])c3cccs3)C(=O)N2[C@H]1C(=O)[O-].[Na+].[Na+]	inactive: 2.97
CN(C)CCC(c1ccc(Cl)cc1)c1ccccn1.O=C(O)/C=C\C(=O)O (racemic) [(±)-Chlorpheniramine maleate]	inactive: 0.865
O=C(Nc1cccnc1)N1CCC(Cc2cccc(Oc3ccc(C(F)(F)F)cn3)c2)CC1 [PF 3845 hydrate]	inactive: -0.901
CN1CC(CNC(=O)OCc2ccccc2)C[C@H]2c3cccc4c3c(cn4C)CC21 (some centres not stated)	inactive: 0.305
COc1cc(OC)c2c(c1)O[C@H](c1ccc(OC)c(OC)c1)[C@@H](O)C2	inactive: 1.5
NCC(O)CC(=O)O (configuration not stated)	inactive: 2.22
Cc1cc2c(cc1S(N)(=O)=O)S(=O)(=O)CCC2	inactive: 1.35
CC(C)(S)C(N)C(=O)O.NCCO (configuration not stated)	inactive: 1.33
OCCn1cc(-c2cnc3nnn(Cc4ccc5ncccc5c4)c3n2)cn1	inactive: 1.28
O=C([O-])CCC(=O)OC[C@@H](NC(=O)C(Cl)Cl)[C@H](O)c1ccc([N+](=O)[O-])cc1.[Na+]	inactive: 0.198
O=C([O-])P(=O)([O-])[O-].[Na+].[Na+].[Na+]	inactive: 1.86
Cc1cc(O)c2c(c1)C(=O)c1cccc(O)c1C2=O [Chrysophanic Acid]	inactive: 1.3
Cc1cc(O)c2c(c1)C(=O)c1cccc(O)c1C2=O [Chrysophanic acid (Chrysophanol)]	inactive: 1.46
CCN(CC)CCCC(C)Nc1c2ccc(Cl)cc2nc2ccc(OC)cc12.Cl.Cl (configuration not stated)	inactive: 1.38
O=C([O-])c1ccccc1[O-].[Bi+3].[OH-] [Bismuth subsalicylat]	inactive: 1.94
C=CCCCCCCCCC(=O)[O-].C=CCCCCCCCCC(=O)[O-].NCCO.NCCO.[Zn+2]	inactive: 0.586
Cl.O=C1NCC2(CCN(CCc3ccccc3)CC2)O1	inactive: 1.24
Cl.O=C1NCC2(CCN(CCc3ccccc3)CC2)O1 [Fenspiride hydrochloride]	inactive: 3.08
CCCC(C)C1(CC)C(=O)N=C(O)NC1=O (configuration not stated)	inactive: 2.17
CS(=O)(=O)O.C[C@H]1COc2c(C3(N)CC3)c(F)cc3c(=O)c(C(=O)O)cn1c23	inactive: 1.6
N=C(N)NCCCCNC(=N)N.O=S(=O)(O)O [Arcaine sulfate]	inactive: 2.22
CC(C)N(CCC(=O)c1ccc2ccccc2c1)Cc1ccccc1.Cl	inactive: 2.57
CC(CCC(=O)O)[C@H]1CCC2C3C(C[C@H](O)[C@@]21C)[C@@]1(C)CC[C@@H](O)C[C@H]1C[C@H]3O (some centres not stated)	inactive: 2.77

Compound	cell-cell fusion (z-score)
CCS(=O)(=O)N1CC(CC#N)(n2cc(-c3ncnc4[nH]ccc34)cn2)C1.O=P(O)(O)O [Baricitinib Phosphate]	inactive: -2.67
Cl.c1ccc(C2CN3CCSC3=N2)cc1 (configuration not stated)	inactive: 2.04
Cl.c1ccc(C2CN3CCSC3=N2)cc1 (configuration not stated) [Tetramisole hydrochloride]	inactive: 1.14
COc1cc2c(cc1O)CCNC2C (configuration not stated)	inactive: 1.12
COC(=O)C[C@H]1C(C)(C)[C@@H](O)[C@@H]2CC3=C4CC(O)O[C@@H](c5ccoc5)[C@]4(C)CCC3[C@@]1(C)C2=O (stereo partly drawn) [3,16-DIDEOXYMEXICANOLIDE-3beta-DIOL]	inactive: 3.05
CC1(C)C(=O)C=C[C@@]2(C)C1C=C[C@]1(C)C2CC[C@@]2(C)[C@H](c3ccoc3)OC(=O)[C@H]3O[C@]321 (some centres not stated)	inactive: 2.44
CC1=C(C(=O)O)N2C(=O)[C@@H](NC(=O)[C@H](N)c3ccccc3)[C@H]2SC1 [Cephalexin]	inactive: -1.93
CCn1cc(C(=O)O)c(=O)c2cnc(N3CCCC3)nc21.NCCO	inactive: 0.665
NCCO.NCCO.O[AsH]O[AsH]O (configuration not stated)	inactive: 1.8
CC(CN(C)C)CN1c2ccccc2Sc2ccccc21.CC(CN(C)C)CN1c2ccccc2Sc2ccccc21.O=C(O)[C@H](O)[C@@H](O)C(=O)O (configuration not stated) [Trimeprazine tartrate]	inactive: -0.0467
CC(C)[N+](C)(CCOC(=O)C1c2ccccc2Oc2ccccc21)C(C)C.[Br-]	inactive: 0.606
CCCCCCCCCC[Si](C)(C)CCC(=O)NC(Cc1ccc(C)cc1)c1ccccc1 (configuration not stated) [Sandoz 58-035]	inactive: 3.45
CC(=O)N[C@@H](CCC(=O)O)C(=O)O	inactive: 3.55
Nc1nnc(-c2cccc(Cl)c2Cl)c(N)n1 [Lamotrigine]	inactive: 2.94
O=C1NC(=O)/C(=C\c2cccc(C(F)(F)F)c2)S1	inactive: 0.754 and inactive: -0.678
CCCCCCOc1ccccc1C(N)=O	inactive: 1.7
Nc1ncnc2c1ncn2[C@@H]1O[C@H](CO)[C@@H](O)[C@H]1O [Adenosine]	inactive: 1.81
N#Cc1ccc(C(c2ccc(C#N)cc2)n2cncn2)cc1 [Letrozole]	inactive: 3.97
CC(=O)CC(c1ccccc1)c1c(O)c2ccccc2oc1=O (configuration not stated)	inactive: 2.29
Cc1c(N)c(=O)n(-c2ccccc2)n1C	inactive: 1.61
N#Cc1ccc2[nH]cc(CCCCN3CCN(c4ccc5oc(C(N)=O)cc5c4)CC3)c2c1 [Vilazodone]	inactive: -0.496
COc1ccc(-c2oc3c(CC=C(C)C)c(O[C@@H]4O[C@H](CO)[C@@H](O)[C@H](O)[C@H]4O)cc(O)c3c(=O)c2O[C@@H]2O[C@@H](C)[C@H](O)[C@@H](O)[C@H]2O)cc1	inactive: 2.3
CC1(C)O[C@@H]2CC3C4C[C@H](F)C5=CC(=O)CC[C@]5(C)C4[C@@H](O)C[C@]3(C)[C@]2(C(=O)CO)O1 (some centres not stated)	inactive: 3.08
CC(=O)O.N=C(N)N/N=C\c1c(Cl)cccc1Cl	inactive: -0.188

Compound	cell-cell fusion (z-score)
CNCCCC12CCC(c3ccccc31)c1ccccc12.Cl [Maprotiline hydrochloride]	inactive: -1.84
C=CCN1CCC23c4c5ccc(O)c4O[C@H]2C(=O)CC[C@@]3(O)C1C5.Cl (some centres not stated) [Naloxone hydrochloride]	inactive: 2.52
CCCNS(=O)(=O)Nc1ncnc(OCCOc2ncc(Br)cn2)c1-c1ccc(Br)cc1 [Macitentan]	inactive: 0.312
CC(C)(C)NCC(O)COc1nsnc1N1CCOCC1.O=C(O)/C=C\C(=O)O (stereo not drawn) [S(-)-Timolol maleate]	inactive: 1.38
C[C@@H]1CCN(C(=O)C(CCCN=C(N)N)NS(=O)(=O)c2cccc3c2NC[C@H](C)C3)C(C(=O)O)C1.O (some centres not stated) [Argatroban monohydrate]	inactive: 1.65
C=C(C)c1cc2cc(C(C)=O)c(O)cc2o1	inactive: 1.81
Cc1ccc(S(=O)(=O)N[C@@H](Cc2ccccc2)C(=O)CCl)cc1 [N-p-Tosyl-L-phenylalanine chloromethyl ketone]	inactive: 1.32
O=C(O)c1nn(Cc2ccc(Cl)cc2Cl)c2ccccc12 [Lonidamine]	inactive: 0.986
CCCN1CCCC[C@H]1C(=O)Nc1c(C)cccc1C [Ropivacaine]	inactive: 0.417
O=C1O[C@H](CO)[C@@H](O)[C@H](O)[C@H]1O [Delta-Gluconolactone]	inactive: 2.44
CC[N+](C)(C)c1cccc(O)c1.[Cl-] [Edrophonium chloride]	inactive: 3.89
CC[N+](C)(C)c1cccc(O)c1.[Cl-]	inactive: 1.82
O=c1cc(N2CCOCC2)oc2c(-c3cccc4c3sc3ccccc34)cccc12	inactive: 0.84 and inactive: 1.91
C#C[C@]1(O)CC[C@H]2[C@@H]3CCc4cc(O)ccc4[C@H]3CC[C@@]21C [Ethynyl estradiol]	inactive: 2.4
CC(=O)OC1CCC2(C)C3CC(=O)C4(C)C(CC5OC6(CCC(C)CO6)[C@@H](C)C54)C3CC[C@H]2C1 (some centres not stated)	inactive: 2.07
CC(C)(C)OC(=O)NC1[C@H]2CNC[C@@H]12 (some centres not stated)	inactive: 2.47
Cc1cccc(/C=C/c2ccccc2)n1	inactive: 2.75
C#C[C@]1(O)CCC2C3CCc4cc(O)ccc4C3CC[C@@]21C (some centres not stated)	active: -3.18
CN1CCC2(CCN3CCc4c(oc5ccccc45)C3C2)N(C)C1=O.Cl (configuration not stated)	inactive: 2.15
C[C@H]1OC(O[C@H]2[C@@H](O)CC(O[C@H]3[C@@H](O)C[C@H](O[C@H]4CC[C@]5(C)C6CC[C@]7(C)[C@@H](C8=CC(=O)OC8)[C@@H](O)C[C@]7(O)[C@@H]6CC[C@@H]5C4)O[C@@H]3C)O[C@@H]2C)C[C@H](O)C1O (some centres not stated)	inactive: 1.96
NCCCNCCCCNCCCN	inactive: 2.53
N[C@H](C(=O)O)c1cc(O)cc(O)c1 [(S)-3,5-Dihydroxyphenylglycine]	inactive: 2.39
CCN(CC)CCNC(=O)c1cc(Cl)c(N)cc1OC [5-Chloro-2-methoxyprocainamide]	inactive: 3.48
CCOc1ccc2ccccc2c1C(=O)N[C@@H]1C(=O)N2[C@@H]1SC(C)(C)[C@@H]2C(=O)[O-].O.[Na+] [nafcillin sodium]	inactive: 1.93
